Data taken from patent publication US20230119013A1, “N-CYANOPYRROLIDINES WITH ACTIVITY AS USP30 INHIBITORS” (MISSION THERAPEUTICS LIMITED, priority 2020, published 2023).
Some entries share one result that the patent states for a list of compounds.

Columns and labels:
UCHL1 = molecular target: T1, UCHL1 (Homo sapiens, UniProt P09936); assay: DUB IC50 UCHL1; assay type: biochemical
T1 sequence (P09936 1-223): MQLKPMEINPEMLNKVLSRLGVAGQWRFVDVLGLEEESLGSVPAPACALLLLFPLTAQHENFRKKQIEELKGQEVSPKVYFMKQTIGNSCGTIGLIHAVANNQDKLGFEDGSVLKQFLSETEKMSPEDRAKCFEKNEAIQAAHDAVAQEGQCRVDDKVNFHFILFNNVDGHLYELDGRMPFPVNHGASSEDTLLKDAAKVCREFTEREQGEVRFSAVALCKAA

[1] = test system: USP2, USP10, USP16, USP21, USP22, USP25, USP28; assay: DUB IC50, seven DUBs; assay type: biochemical; details: USP2, USP10, USP16, USP21, USP22, USP25 and USP28

Row | Structure (SMILES) | fold more potent against USP30 than UCHL1 (UCHL1) | fold more potent against USP30 than against each of the seven DUBs, at a minimum [1] [fold]
1 | COC[C@@H]1C[C@@H](NC(=O)c2ncc(-c3cccc(OC(F)(F)F)c3)o2)CN1C#N [Example 1, N-((3R,5S)-1-Cyano-5-(methoxymethyl)pyrrolidin-3-yl)-5-(3-(trifluoromethoxy)phenyl)oxazole-2-carboxamide] | at least 20000 fold | ≥ 880
2 | C[C@@H]1C[C@@H](NC(=O)c2ncc(-c3cccc(OC(F)(F)F)c3)o2)CN1C#N [Example 2, N-((3R,5R)-1-Cyano-5-methylpyrrolidin-3-yl)-5-(3-(trifluoromethoxy)phenyl)oxazole-2-carboxamide] | at least 20000 fold | ≥ 880
3 | COC[C@H]1C[C@@H](NC(=O)c2ncc(-c3cccc(OC(F)(F)F)c3)o2)CN1C#N [Example 3, N-((3R,5R)-1-Cyano-5-(methoxymethyl)pyrrolidin-3-yl)-5-(3-(trifluoromethoxy)phenyl)oxazole-2-carboxamide] | at least 20000 fold | ≥ 880
